# Results as given in the supplement of paper PMC12819154, “High-throughput peptide-centric local stability assay extends protein–ligand identification to membrane proteins, tissues and bacteria” (Nature Structural & Molecular Biology, 2025).
# Chains of the proteins cited; added tags and fusions are not shown. Lines headed by an entry give the natural chain unless they say otherwise; changes in a name come on top.
# UniProt Q91WE1: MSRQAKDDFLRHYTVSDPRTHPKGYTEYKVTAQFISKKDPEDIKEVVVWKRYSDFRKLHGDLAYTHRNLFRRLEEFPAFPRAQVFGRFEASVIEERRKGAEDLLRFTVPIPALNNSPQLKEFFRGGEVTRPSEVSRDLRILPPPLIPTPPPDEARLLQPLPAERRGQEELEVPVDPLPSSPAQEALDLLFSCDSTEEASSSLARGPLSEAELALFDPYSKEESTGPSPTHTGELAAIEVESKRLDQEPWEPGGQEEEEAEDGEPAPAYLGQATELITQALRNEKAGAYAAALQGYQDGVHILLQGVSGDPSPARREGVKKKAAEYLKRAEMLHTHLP
# UniProt Q91X46: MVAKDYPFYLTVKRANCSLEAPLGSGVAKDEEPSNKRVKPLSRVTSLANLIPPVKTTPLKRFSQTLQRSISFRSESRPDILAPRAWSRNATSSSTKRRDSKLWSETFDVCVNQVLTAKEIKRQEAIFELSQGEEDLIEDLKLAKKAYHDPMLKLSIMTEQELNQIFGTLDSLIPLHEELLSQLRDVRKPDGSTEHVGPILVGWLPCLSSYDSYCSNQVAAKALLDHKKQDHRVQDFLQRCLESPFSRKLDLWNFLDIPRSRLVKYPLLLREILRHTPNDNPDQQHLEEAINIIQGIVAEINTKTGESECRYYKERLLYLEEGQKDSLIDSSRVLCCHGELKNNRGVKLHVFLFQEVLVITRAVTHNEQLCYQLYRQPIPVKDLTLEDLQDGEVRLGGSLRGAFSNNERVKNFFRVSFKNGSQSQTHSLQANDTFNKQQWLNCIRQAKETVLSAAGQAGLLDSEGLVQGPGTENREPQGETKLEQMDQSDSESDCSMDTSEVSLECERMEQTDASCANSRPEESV
# UniProt Q91YT7: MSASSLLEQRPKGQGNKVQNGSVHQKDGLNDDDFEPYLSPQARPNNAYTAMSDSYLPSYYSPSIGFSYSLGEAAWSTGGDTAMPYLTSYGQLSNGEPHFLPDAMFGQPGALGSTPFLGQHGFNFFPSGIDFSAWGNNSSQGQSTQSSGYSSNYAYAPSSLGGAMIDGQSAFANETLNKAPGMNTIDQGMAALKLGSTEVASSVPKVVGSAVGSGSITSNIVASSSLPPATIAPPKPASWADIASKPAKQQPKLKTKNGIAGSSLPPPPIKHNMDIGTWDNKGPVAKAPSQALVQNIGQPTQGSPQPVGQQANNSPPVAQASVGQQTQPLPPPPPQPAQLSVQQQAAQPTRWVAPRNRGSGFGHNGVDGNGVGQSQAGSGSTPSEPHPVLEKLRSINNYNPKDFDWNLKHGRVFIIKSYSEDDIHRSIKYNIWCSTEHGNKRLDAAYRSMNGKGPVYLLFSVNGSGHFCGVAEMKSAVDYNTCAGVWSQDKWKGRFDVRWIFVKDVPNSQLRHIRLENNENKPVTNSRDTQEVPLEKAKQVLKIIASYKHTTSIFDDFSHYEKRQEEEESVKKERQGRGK
# UniProt Q91ZP6: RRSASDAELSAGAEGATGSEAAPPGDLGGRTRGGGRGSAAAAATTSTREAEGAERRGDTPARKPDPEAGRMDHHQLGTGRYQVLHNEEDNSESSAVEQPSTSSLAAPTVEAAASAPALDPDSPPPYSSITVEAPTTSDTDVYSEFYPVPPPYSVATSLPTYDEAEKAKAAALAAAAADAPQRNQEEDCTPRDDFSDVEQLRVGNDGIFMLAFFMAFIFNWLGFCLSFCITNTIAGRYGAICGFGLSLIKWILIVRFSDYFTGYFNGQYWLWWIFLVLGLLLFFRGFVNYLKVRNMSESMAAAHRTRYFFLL
# UniProt Q91VC3, whole entry: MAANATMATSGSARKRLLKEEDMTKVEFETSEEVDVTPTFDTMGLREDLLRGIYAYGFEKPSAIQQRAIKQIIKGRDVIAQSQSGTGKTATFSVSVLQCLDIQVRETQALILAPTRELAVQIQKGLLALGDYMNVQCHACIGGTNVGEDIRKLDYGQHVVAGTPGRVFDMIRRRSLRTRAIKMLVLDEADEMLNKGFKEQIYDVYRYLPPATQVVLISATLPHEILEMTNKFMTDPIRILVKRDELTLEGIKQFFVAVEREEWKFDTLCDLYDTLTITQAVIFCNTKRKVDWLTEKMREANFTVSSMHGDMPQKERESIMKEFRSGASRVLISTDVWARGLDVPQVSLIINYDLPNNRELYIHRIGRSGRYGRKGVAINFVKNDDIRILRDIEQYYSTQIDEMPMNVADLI
# UniProt Q91X83: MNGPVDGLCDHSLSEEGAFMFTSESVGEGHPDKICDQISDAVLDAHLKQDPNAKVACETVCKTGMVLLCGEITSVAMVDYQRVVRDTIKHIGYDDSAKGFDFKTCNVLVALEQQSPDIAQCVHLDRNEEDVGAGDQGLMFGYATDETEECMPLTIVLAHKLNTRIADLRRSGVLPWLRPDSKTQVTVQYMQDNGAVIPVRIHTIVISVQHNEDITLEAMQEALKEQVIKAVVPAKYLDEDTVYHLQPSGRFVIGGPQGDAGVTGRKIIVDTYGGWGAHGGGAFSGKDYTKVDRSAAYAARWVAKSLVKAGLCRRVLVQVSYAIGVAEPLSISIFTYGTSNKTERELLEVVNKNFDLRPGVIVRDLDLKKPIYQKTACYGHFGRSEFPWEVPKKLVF
# UniProt Q91YW3: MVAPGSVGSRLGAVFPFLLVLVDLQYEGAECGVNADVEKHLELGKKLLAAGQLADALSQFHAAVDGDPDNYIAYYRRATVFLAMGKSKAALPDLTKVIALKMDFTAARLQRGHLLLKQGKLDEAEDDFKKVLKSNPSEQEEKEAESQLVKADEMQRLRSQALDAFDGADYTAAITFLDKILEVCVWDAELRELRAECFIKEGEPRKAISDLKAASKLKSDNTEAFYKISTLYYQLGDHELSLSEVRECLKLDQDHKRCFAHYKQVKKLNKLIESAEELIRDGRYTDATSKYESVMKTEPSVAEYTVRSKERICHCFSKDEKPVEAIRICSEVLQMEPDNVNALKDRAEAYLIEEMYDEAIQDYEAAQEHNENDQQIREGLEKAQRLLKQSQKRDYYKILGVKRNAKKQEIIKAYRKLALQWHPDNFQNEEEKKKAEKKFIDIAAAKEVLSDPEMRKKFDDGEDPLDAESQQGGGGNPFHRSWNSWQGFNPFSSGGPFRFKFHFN
# UniProt Q91VM5: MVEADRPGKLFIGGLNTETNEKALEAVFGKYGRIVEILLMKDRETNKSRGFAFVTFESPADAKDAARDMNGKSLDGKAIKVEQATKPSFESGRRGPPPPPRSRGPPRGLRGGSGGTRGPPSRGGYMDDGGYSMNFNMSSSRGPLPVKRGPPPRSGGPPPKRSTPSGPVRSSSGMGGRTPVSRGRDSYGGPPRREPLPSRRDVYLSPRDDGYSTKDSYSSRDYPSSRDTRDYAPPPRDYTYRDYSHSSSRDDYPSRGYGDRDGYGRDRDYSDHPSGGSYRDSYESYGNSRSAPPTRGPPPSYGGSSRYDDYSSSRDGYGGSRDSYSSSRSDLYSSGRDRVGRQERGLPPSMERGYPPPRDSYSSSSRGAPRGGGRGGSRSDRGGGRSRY
# UniProt Q91UZ4: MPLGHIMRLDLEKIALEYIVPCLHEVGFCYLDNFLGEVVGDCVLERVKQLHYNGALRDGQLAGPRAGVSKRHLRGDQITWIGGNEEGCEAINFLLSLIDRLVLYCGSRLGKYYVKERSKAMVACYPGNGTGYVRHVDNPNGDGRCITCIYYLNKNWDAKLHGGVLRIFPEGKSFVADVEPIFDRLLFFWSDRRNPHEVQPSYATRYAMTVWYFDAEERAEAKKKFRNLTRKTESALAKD
# UniProt Q91WG1: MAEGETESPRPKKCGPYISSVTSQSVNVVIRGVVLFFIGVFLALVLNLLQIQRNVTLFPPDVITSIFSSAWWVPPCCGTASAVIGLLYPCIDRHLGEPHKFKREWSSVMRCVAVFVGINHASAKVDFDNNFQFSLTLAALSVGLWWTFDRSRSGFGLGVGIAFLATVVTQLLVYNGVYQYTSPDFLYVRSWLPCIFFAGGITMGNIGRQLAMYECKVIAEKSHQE
# UniProt Q91X78: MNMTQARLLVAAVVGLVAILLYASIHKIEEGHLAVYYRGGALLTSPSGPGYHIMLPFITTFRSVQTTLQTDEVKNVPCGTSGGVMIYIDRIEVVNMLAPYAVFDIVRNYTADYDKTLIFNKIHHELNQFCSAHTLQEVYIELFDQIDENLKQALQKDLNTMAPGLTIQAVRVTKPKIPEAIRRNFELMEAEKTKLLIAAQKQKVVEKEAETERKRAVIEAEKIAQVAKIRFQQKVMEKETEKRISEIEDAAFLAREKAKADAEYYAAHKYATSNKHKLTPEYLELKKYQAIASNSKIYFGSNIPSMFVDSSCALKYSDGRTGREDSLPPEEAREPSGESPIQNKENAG
# UniProt Q8VHG0: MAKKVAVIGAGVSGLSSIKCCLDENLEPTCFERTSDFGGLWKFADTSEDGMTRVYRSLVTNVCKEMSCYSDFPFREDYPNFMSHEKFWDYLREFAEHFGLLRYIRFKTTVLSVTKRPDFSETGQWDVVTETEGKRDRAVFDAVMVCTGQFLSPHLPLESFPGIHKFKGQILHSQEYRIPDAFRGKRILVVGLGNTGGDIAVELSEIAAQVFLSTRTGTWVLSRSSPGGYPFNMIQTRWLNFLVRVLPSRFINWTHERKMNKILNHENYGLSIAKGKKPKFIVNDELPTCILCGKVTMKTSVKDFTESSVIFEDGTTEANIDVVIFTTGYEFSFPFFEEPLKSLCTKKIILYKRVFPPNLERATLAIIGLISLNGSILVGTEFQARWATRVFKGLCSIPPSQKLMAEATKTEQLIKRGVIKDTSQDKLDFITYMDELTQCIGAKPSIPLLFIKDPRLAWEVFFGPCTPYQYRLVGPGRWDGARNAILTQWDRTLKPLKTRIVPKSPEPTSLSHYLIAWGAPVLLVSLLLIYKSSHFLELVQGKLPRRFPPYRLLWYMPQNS
# UniProt Q91YX0: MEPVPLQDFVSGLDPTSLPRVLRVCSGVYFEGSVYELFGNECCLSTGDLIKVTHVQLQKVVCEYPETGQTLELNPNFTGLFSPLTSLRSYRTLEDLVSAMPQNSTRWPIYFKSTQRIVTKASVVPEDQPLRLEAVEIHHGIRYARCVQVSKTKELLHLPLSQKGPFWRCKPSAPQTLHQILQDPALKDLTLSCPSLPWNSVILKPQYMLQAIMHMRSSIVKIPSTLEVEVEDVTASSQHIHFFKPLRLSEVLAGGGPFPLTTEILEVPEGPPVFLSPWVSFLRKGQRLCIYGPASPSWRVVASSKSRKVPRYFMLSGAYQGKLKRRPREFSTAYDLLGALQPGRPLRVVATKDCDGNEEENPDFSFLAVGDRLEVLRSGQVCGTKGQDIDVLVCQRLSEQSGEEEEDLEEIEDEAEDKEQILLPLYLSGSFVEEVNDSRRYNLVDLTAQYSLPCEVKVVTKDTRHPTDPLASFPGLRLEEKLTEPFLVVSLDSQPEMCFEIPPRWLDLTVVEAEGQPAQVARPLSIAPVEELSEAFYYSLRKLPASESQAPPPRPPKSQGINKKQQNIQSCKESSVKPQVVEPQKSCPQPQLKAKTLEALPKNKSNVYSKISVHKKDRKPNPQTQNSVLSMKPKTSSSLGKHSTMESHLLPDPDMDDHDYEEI
# UniProt Q91VS7: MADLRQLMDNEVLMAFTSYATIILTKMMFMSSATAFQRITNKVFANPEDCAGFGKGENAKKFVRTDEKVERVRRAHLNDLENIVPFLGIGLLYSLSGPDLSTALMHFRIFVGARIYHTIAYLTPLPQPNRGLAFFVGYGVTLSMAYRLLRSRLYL
# UniProt Q91VM3: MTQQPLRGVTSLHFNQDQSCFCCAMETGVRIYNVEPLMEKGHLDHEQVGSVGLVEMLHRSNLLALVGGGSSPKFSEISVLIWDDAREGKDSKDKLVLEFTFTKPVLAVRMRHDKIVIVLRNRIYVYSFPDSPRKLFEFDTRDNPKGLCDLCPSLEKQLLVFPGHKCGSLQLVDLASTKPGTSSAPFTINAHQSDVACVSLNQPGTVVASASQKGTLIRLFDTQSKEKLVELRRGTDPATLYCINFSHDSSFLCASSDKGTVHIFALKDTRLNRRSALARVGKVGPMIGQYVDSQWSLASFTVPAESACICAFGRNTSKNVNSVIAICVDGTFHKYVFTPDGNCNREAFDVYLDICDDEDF
# UniProt Q8VHQ9: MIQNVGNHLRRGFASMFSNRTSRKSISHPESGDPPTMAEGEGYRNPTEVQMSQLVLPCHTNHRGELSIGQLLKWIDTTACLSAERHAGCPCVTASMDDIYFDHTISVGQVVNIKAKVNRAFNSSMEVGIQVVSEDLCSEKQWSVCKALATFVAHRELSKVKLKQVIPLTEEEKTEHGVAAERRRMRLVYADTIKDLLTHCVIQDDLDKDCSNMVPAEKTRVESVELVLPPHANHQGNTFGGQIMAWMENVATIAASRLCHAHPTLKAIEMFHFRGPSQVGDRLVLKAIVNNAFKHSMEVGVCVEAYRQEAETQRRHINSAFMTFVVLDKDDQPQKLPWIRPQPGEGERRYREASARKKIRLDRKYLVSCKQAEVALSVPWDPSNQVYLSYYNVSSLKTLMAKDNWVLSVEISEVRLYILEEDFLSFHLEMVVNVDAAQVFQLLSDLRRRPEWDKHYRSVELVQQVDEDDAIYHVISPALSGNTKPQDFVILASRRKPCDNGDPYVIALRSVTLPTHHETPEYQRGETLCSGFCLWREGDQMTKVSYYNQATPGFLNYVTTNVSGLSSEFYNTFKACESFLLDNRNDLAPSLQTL
# Some of the results follow. Most values lie at the level of the controls, where differences are scatter.
# Compound: CN[C@@H]1C[C@H]2O[C@@](C)([C@@H]1OC)n1c3ccccc3c3c4c(c5c6ccccc6n2c5c31)C(=O)NC4 [staurosporine]
# Assay: log2 fold change of tryptic peptide abundance, ligand vs vehicle (limited proteolysis) (log2 ratio); higher = more trypsin-susceptible (destabilized)
# Conditions: ligand concentration: 20 uM; sample: mouse liver crude lysate; replicate design: treated separately
row,Target,log2 fold change
1,"UniProt Q91WE1 (peptide sequence: LEEFPAFPR, peptide start residue: 73)",-0.311
2,"UniProt Q91X46 (peptide sequence: FSQTLQR, peptide start residue: 62)",0.178
3,"UniProt Q91ZN5 (peptide sequence: AVPTEPPVQK, peptide start residue: 421)",-0.46
4,"UniProt Q91YT7 (peptide sequence: LENNENKPVTNSR, peptide start residue: 515)",-0.646
5,"UniProt Q91WF3 (peptide sequence: ADTEHRDPYLR, peptide start residue: 427)",-0.58
6,"UniProt Q91ZP6 (peptide sequence: AAALAAAAADAPQR, peptide start residue: 169)",0.371
7,"UniProt Q91VC3 (peptide sequence: DVIAQSQSGTGK, peptide start residue: 77)",0.174
8,"UniProt Q91X83 (peptide sequence: SEFPWEVPKK, peptide start residue: 384)",0.11
9,"UniProt Q91XB7 (peptide sequence: AYHSAYGVHGSK, peptide start residue: 2)",-0.0348
10,"UniProt Q91W92 (peptide sequence: DRDRDPDHSQDR, peptide start residue: 176)",-0.26
11,"UniProt Q91YW3 (peptide sequence: RATVFLAMGK, peptide start residue: 77)",0.389
12,"UniProt Q91VM5 (peptide sequence: DRDYSDHPSGGSYR, peptide start residue: 266)",0.138
13,"UniProt Q91WG4 (peptide sequence: CLAMIDR, peptide start residue: 445)",0.564
14,"UniProt Q91UZ4 (peptide sequence: HVDNPNGDGR, peptide start residue: 290)",0.181
15,"UniProt Q91WE2 (peptide sequence: EEELEELK, peptide start residue: 106)",-0.323
16,"UniProt Q91WG1 (peptide sequence: AEGETESPRPK, peptide start residue: 2)",-0.131

# Quoted from the listing:
# Entry of UniProt Q91X83 (peptide sequence: SEFPWEVPKK, peptide start residue: 384) under log2 fold change: 0.11
# Entry of UniProt Q91W92 (peptide sequence: DRDRDPDHSQDR, peptide start residue: 176) under log2 fold change: -0.26

# The listing continues:

row,Target,log2 fold change
1,"UniProt Q91Z40 (peptide sequence: DFVLELK, peptide start residue: 182)",0.143
2,"UniProt Q91X78 (peptide sequence: ISEIEDAAFLAR, peptide start residue: 244)",-0.227
3,"UniProt Q91W50 (peptide sequence: EIFFHYSEFK, peptide start residue: 208)",-0.878
4,"UniProt Q8VHG0 (peptide sequence: ILNHENYGLSIAK, peptide start residue: 262)",-0.332
5,"UniProt Q91WK7 (peptide sequence: DELRCKIPAGR, peptide start residue: 79)",-0.317
6,"UniProt Q91X58 (peptide sequence: AVGEHIDR, peptide start residue: 75)",-0.126
7,"UniProt Q91YX0 (peptide sequence: ASVVPEDQPLRLEAVEIHHGIR, peptide start residue: 121)",0.472
8,"UniProt Q8VHK9 (peptide sequence: EIGLWYAK, peptide start residue: 54)",0.109
9,"UniProt Q91VS7 (peptide sequence: ITNKVFANPEDCAGFGKGENAK, peptide start residue: 39)",-1.28
10,"UniProt Q91WS2 (peptide sequence: LKQQQLQK, peptide start residue: 94)",-0.332
11,"UniProt Q91YT0 (peptide sequence: YLVVNADEGEPGTCKDREIMR, peptide start residue: 112)",-0.723
12,"UniProt Q91VM3 (peptide sequence: GHLDHEQVGSVGLVEMLHR, peptide start residue: 41)",-0.00797
13,"UniProt Q8VHQ9 (peptide sequence: ALATFVAHR, peptide start residue: 147)",0.194
14,"UniProt Q91VU6 (peptide sequence: YNPPVDATPDTR, peptide start residue: 91)",0.0869
15,"UniProt Q91WT4 (peptide sequence: VKLDLEAR, peptide start residue: 96)",0.399
